Some of the results follow. These are further read-outs of the screen, such as a control signal, another cell line or another target. No call is given for them. The list favours compounds with an active or inconclusive main result. Potencies come from curve fits of mixed quality, noted in brackets.
Experiment: qHTS Assay for Lipid Storage Modulators in Drosophila S3 Cells;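 for cell number change: cells counted by Cell Tracker Red CMTPX staining in the red channel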
Conditions: BODIPY lipid droplet fluorescence, 18-24 h; for cell number change: measured here: cell count max response, cells fed with added oleic acid
Summary of the method: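 Drosophila S3 cells got compounds at several concentrations plus oleic acid (400 uM solution). Laser-scanning cytometry with 488 nm excitation read lipid droplets at 500-530 nm and cells at 575-640 nm. Percent activity was relative to 20 uM Triacsin C.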

[1] = measured here: cell number channel AC50, cells fed with added oleic acid
[2] = measured here: lipid fluorescence (Fed channel) AC50, cells fed with added oleic acid

Compound	cell number change [%]	AC50 [1]	AC50 [2]
Cc1ccc(C(=O)NCCc2nnc(SCC(=O)Nc3nc(-c4ccccc4)cs3)n2C)cc1	-38.5	8.2 µM [falling, partial curve]	8.2 µM [falling, partial curve]
COc1ccc(NC(=O)c2c(NC(=O)CCC(=O)O)sc3c2CCCCC3)cc1	30.4	29.1 µM [rising, partial curve]	
COc1ccc(Nc2cc(Cl)ccc2C(=O)O)cn1	-18.2	4.61 µM [falling, single point]	
CN(C)S(=O)(=O)c1cccc(NC(=O)c2ccc(S(=O)(=O)N3CCCC3)cc2)c1	-24.2		1.16 µM [falling, full curve, poor fit]
CN(C)S(=O)(=O)c1ccc(S(=O)(=O)NCc2cccs2)cc1	33.3	14.6 µM [rising, partial curve]	
CCC(C)(C)N(C(=O)CCC(=O)Nc1cc(C)on1)C(C(=O)NC(C)(C)C)c1ccc(OC)cc1 (stereo unspecified)	-35.2	11.6 µM [falling, partial curve, poor fit]	
CCOC(=O)c1cnc(-n2nc(C)cc2C)nc1NC1CCCCC1	-20.7		0.82 µM [falling, full curve, poor fit]
COc1ccc(S(=O)(=O)N2CC(O)C[C@H]2C(=O)OCC(=O)N2CCCCCC2)cc1 (stereo partly specified)	24		16.4 µM [rising, single point]
O=C(Cn1c(NCCO)nc2ccccc21)NCCc1ccc(F)cc1	-2.15		6.51 µM [falling, single point]
Cc1ccc[n+](CC(=O)Nc2ccc(C)c(C)c2)c1	14.3		
CC(C)(C)C(=O)CN1CCN(C2c3ccccc3-c3ccccc32)CC1		6.51 µM [rising, single point]	
COc1cccc(N2CCN(Cc3ncc(-c4ccccc4)o3)CC2)c1	33.8		
CCOC(=O)c1sc2nc(C)nc(Nc3ccc(OC)c(OC)c3)c2c1C	-56.2	25.9 µM [falling, single point]	29.1 µM [falling, single point]
C/C(CC(=O)N1CCN(C=O)CC1)=N\NC(=O)c1cc2ccccc2cc1O	18.7		16.4 µM [rising, partial curve]
COC(=O)CSCc1nc2ccccc2[nH]c1=O			0.0058 µM [rising, full curve, poor fit]
O=C(Nc1ccc(Br)cc1)c1cc([N+](=O)[O-])cc([N+](=O)[O-])c1	-29		16.4 µM [falling, single point]
Cn1c(=O)c(=O)n(C)c2cc(S(=O)(=O)CCC(=O)N3CCCCC3)ccc21	-16.7		6.51 µM [falling, single point]
c1ccc(C(NCCNC(c2ccccc2)c2ccccc2)c2ccccc2)cc1	-57.9	29.1 µM [falling, single point]	29.1 µM [falling, single point]
COc1cc(C(=O)Nc2ccc(NC(=O)c3ccccc3)nc2)cc(OC)c1OC	5.98		29.1 µM [falling, single point]
O=C(c1cc2cc(Cl)ccc2[nH]1)N1CCN(c2ccccn2)CC1	30.5		
CN(CC(=O)N1CCN(Cc2ccccc2)CC1)S(=O)(=O)c1ccc(Br)cc1	-16.8		29.1 µM [falling, single point]

Two entries picked at random from the list so far, as already listed:
Compound	cell number change [%]	AC50 [1]	AC50 [2]
CN(C)S(=O)(=O)c1cccc(NC(=O)c2ccc(S(=O)(=O)N3CCCC3)cc2)c1	-24.2		1.16 µM [falling, full curve, poor fit]
CCOC(=O)c1sc2nc(C)nc(Nc3ccc(OC)c(OC)c3)c2c1C	-56.2	25.9 µM [falling, single point]	29.1 µM [falling, single point]

Already shown: entries from further up.
Compound	cell number change [%]	AC50 [1]	AC50 [2]
COc1cccc(N2CCN(Cc3ncc(-c4ccccc4)o3)CC2)c1	33.8		
CCOC(=O)c1sc2nc(C)nc(Nc3ccc(OC)c(OC)c3)c2c1C	-56.2	25.9 µM [falling, single point]	29.1 µM [falling, single point]

(continued)

Compound	cell number change [%]	AC50 [1]	AC50 [2]
CC1(C)c2ssc(=S)c2-c2ccccc2N1C(=O)c1ccco1			0.731 µM [falling, full curve]
O=C(CSc1nc2ccccc2[nH]1)c1ccccc1F	-20.6		
CC(C)OCC(O)Cn1c(N2CCCC2)nc2c1c(=O)n(C)c(=O)n2C (stereo unspecified)	-23.8		29.1 µM [falling, single point]
CCC12CN(C(=O)c3ccco3)CC(CC)(CN(C(=O)c3ccco3)C1)C2=O	-24.6		
COc1cc(NC(=O)CN2C(=O)NC3(CCOc4ccccc43)C2=O)cc(OC)c1 (stereo unspecified)	-13.8		
CC(=O)Nc1ccc(C(=O)Nc2ccc(S(=O)(=O)N3CCCCC3)cc2)cc1	-15.4		
CCCc1sc(N2CCCC(C(N)=O)C2)nc1-c1ccccc1 (stereo unspecified)	-18.4		0.0206 µM [falling, full curve, poor fit]
NS(=O)(=O)c1ccc(CCNS(=O)(=O)c2ccccc2)cc1	19.7		6.51 µM [rising, single point]
O=[N+]([O-])c1ccc(NC(=S)NCCc2ccc(Cl)cc2)cc1	-106	18.4 µM [falling, single point]	20.6 µM [falling, single point]
COc1cc(/C=C2\SC(=O)NC2=O)ccc1Oc1ccc([N+](=O)[O-])cc1[N+](=O)[O-]	-60.9	0.326 µM [falling, partial curve]	1.3 µM [falling, full curve]
CCOc1ccc(NC(=O)CCNC(=O)c2ccc(Br)cc2)cc1	53.2	51.7 µM [rising, partial curve, poor fit]	29.1 µM [rising, single point]
O=C(CN1C(=O)NC2(CCCCCC2)C1=O)NCc1ccco1	126	6.51 µM [falling, single point]	6.51 µM [falling, single point]
Cc1nc(N2CCC(C)CC2)c2oc3ccccc3c2n1	-63.9	20.6 µM [falling, partial curve]	32.6 µM [falling, partial curve, poor fit]
CCN1CCn2c1nc(N1CCOCC1)nc2=O	11.1		18.4 µM [falling, partial curve]
CCSc1cnc(-c2ccccc2)n1CC	156	6.51 µM [falling, single point]	
CCN(CCNC(=O)CC1Oc2ccccc2NC1=O)c1ccccc1 (stereo unspecified)	-4.42		
O=C(CCC(=O)OCC(=O)c1ccc(C(F)(F)F)cc1)OCC(=O)c1ccc(C(F)(F)F)cc1	-18.3		
CCCCCc1cc(=O)oc2c(C(CCN3CCCC(C)C3)c3ccc4c(c3)OCO4)c(OC)cc(OC)c12 (stereo unspecified)	-76.5	23.1 µM [falling, single point]	29.1 µM [falling, single point]
O=C1c2cccnc2C(=O)N1c1cccc([N+](=O)[O-])c1	-1.89		
CCOC(=O)N1CCN(C(=O)CSc2nc3c([nH]c4ccccc43)c(=O)n2CC)CC1	-48.5	5.17 µM [falling, partial curve]	
Cc1ccc(NS(=O)(=O)c2ccc3c(c2)oc(=O)n3C)cc1F	-5.59		0.731 µM [rising, full curve, poor fit]

Compound	cell number change [%]	AC50 [1]	AC50 [2]
COc1ccc(Nc2sc(C(=O)c3ccc(Cl)cc3)c(N)c2C(=O)Nc2ccccc2OC)cc1	-8.44		2.91 µM [rising, partial curve, poor fit]
CCOc1ccc(CSC(=N)N)cc1Cl		5.8 µM [falling, single point]	
CC1Cc2ccccc2N1C(=O)CCn1c(=O)sc2ccccc21 (stereo unspecified)	1.11		2.06 µM [rising, partial curve]
Cc1ccc(C)n1CCN1CCN(C(=O)CC#N)CC1	-31.6	18.4 µM [falling, single point]	29.1 µM [falling, single point]
O=C(/C=C/c1ccc(S(=O)(=O)NCc2ccco2)cc1)N1CCN(c2ccccc2)CC1	48.4	1.03 µM [rising, full curve]	10.3 µM [rising, single point]
Cc1nnsc1SCCNC(=O)Nc1ccc(Cl)cc1	-20.2	2.24 µM [falling, full curve, poor fit]	6.31 µM [falling, single point]
COc1cc(NC(=O)CSc2nnc3ccccn23)cc(OC)c1	2.43		
Cc1c(OC(C)C(=O)NCCCn2ccnc2)ccc2c3c(c(=O)oc12)CCC3 (stereo unspecified)	-2.12		
COc1ccc(NC(=O)NNC(=O)C(C)Oc2ccc(C(C)C)cc2)c(OC)c1 (stereo unspecified)	29.2	2.31 µM [rising, full curve, poor fit]	3.66 µM [falling, partial curve]
CC1CCCN(C(=O)CSc2nc3ncccc3[nH]2)C1 (stereo unspecified)	-18.8		18.4 µM [falling, single point]
CC(NC(=O)CSc1nc2ccccc2c(=O)n1CCCO)c1ccccc1 (stereo unspecified)			0.291 µM [rising, partial curve, poor fit]
O=C(NNC(=O)c1ccco1)c1ccc(NS(=O)(=O)c2cccs2)cc1	3.74		5.17 µM [rising, full curve]
O=C(Nc1ccccc1)C1CCN(C(=O)c2ccc(Br)cc2)CC1	7.43		29.1 µM [falling, single point]
C1CCc2c(nc3nnnn3c2NC2CCCC2)C1	-2.82		
CCOCCCNCC(=O)Nc1ccc(S(=O)(=O)NC(C)CC)cc1 (stereo unspecified)	-23.2		0.291 µM [falling, full curve]
CCc1cc(C(=O)O)c(NC(=O)/C=C/c2ccc(OC)c(OC)c2)s1	-29.5		6.51 µM [falling, single point]
Cc1ccc(NC(=O)C2CCN(S(=O)(=O)c3cccnc3)CC2)cc1C			20.6 µM [falling, single point]
CCOC(=O)N1CCN(CC(O)COC2CC(C)CCC2C(C)C)CC1 (stereo unspecified)	17.2		6.51 µM [falling, partial curve]
Cc1ccc(CN(Cc2cc3cccc(C)c3[nH]c2=O)C(=O)N(C)C)cc1	9.13		0.517 µM [rising, full curve]
